Data on one substance can be found in patent US20240374532A1.

The chains behind the UniProt entries cited, without tags or fusion partners. Residues count along the entry.
UniProt P10415, residues 1-218: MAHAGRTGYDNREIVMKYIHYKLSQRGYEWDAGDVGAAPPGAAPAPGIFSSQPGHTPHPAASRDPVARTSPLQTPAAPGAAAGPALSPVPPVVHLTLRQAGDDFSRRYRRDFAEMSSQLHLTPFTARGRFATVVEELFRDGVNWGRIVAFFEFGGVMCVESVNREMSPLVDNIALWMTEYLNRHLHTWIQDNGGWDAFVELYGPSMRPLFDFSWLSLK

The target of test [1] is T1, Casp8p41 activator peptide.
T1 sequence (peptide): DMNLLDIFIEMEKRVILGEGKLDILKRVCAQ
Briefly: SPR, Casp8p41 BH3-like (activator) peptide immobilized, analyte at 800 nM.

Test [2] addresses T1, Casp8p41 activator peptide. Briefly: SPR, Casp8p41 activator peptide immobilized; bar chart of dissociation constants from three experiments. (In general: Surface plasmon resonance follows binding to a sensor surface in real time, without labels.)

Results are given in words; binding and its absence hold for the method and conditions named. Some results given as binding are weak or reduced against the parent protein; the word gives no strength.

On to GST-Bcl-2 (from UniProt P10415 1-218), for which the binding entry in test [1] and in test [2] was “binds” throughout.
